The values below come from paper PMC10560298.

Test [1] addresses T1, uroplakin II (UPII), porcine, prosequence and mature part together (porcine (Sus scrofa; endogenous in urinary bladder)) (UniProt Q95L04).
T1 sequence 1: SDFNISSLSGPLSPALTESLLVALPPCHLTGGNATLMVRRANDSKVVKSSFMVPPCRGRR
T1 sequence 2: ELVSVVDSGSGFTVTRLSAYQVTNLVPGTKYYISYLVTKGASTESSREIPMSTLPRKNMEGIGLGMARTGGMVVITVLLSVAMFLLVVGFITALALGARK
Nature of the test: cryo-EM structure; native AUM isolated from porcine bladder, 0.05 mg/ml in buffer A (10 mM Hepes pH 7.4, 1 mM EDTA); single particle analysis of specimens tilted 0-55 degrees, C6 symmetry; global resolution 3.5 Å (3.2 Å transverse, 6.3 Å vertical); model started from an AlphaFold prediction; both purified.

For test [2], the target named is uroplakin IIIa (UPIIIa), porcine (porcine (Sus scrofa; endogenous in urinary bladder)). The description is as above.

No constants are given. Whether binding was seen depends on the method and setting. A result given as binding can be weak or reduced; the word gives no strength.

As to uroplakin Ia (UPIa), porcine, the binding result in test [1] is reported as “binds”.

B1: uroplakin II (UPII), porcine, prosequence and mature part together (protein, UniProt Q95L04 25-84; Q95L04 85-184)
chain 1: SDFNISSLSGPLSPALTESLLVALPPCHLTGGNATLMVRRANDSKVVKSSFMVPPCRGRR
chain 2: ELVSVVDSGSGFTVTRLSAYQVTNLVPGTKYYISYLVTKGASTESSREIPMSTLPRKNMEGIGLGMARTGGMVVITVLLSVAMFLLVVGFITALALGARK
For B1, in test [2], the binding entry is recorded as “binds”.
